Data as given in PubChem BioAssay AID504764 (Drosophila RNAi Screening Center, 2011)
In all, the deposit lists about 22,000 reagents; shown is an unselected part of those with a known target gene and a result. Of all reagents, 403 (1.9%) were called active. 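Unnormalised raw counts per well; ratio z-scores behind the hit calls and whether each hit raises or lowers signal are not deposited.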 Names joined by + are all predicted targets of the reagent. The record does not give: the amount of reagent.

Purpose: 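Genes whose knock-down alters Notch-dependent transcription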 (primary screen)
Cells: Drosophila Kc167 cells
Reagent: long dsRNA against Drosophila genes
Time to read-out: about 5 days (4 days dsRNA, then 24 h after transfection)
Conditions: transfection of constitutively active membrane-tethered Notch lacking the extracellular domain, read 24 h later
Read-out: 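Light from a Notch-responsive E(spl)m3 luciferase reporter under active Notch, with control-promoter and no-Notch reporter wells to normalise; raw counts from paired wells a and b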
Direction: induced reporter light, run 1, well a and induced reporter light, run 1, well b: higher = more light from the Notch target reporter with active Notch; control promoter light, run 1, well a and control promoter light, run 1, well b: higher = more light from the viral control promoter (cell number, transfection, viability); uninduced reporter light, run 1, well a: higher = more light from the Notch target reporter without active Notch
Rule for the call: 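Wells with low control signal or poorly matching duplicates excluded; duplicates averaged; per source plate, z beyond ±2 for induced/control log2 ratio or beyond ±1.8 for induced/uninduced marks a hit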
Calls: active = modifier hit (raised or lowered Notch signal); inactive = not a hit

gene,DRSC id,"induced reporter light, run 1, well a","induced reporter light, run 1, well b","control promoter light, run 1, well a","control promoter light, run 1, well b","uninduced reporter light, run 1, well a",Outcome
CG33116 (GeneID 326259),DRSC02045,2.07e5,1.95e5,2.45e5,2.73e5,17032,active
CG1394 (GeneID 32059),DRSC19539,40830,41355,97080,79990,6615,inactive
LysE (GeneID 38128),DRSC08675,1.05e5,1.33e5,1.86e5,1.77e5,7588,inactive
Spt3 (GeneID 41461),DRSC15465,1.05e5,1.23e5,1.42e5,85770,6815,inactive
Adgf-C (GeneID 41680),DRSC16473,1.79e5,2.26e5,2.00e5,2.02e5,18700,inactive
CG31156 (GeneID 42669),DRSC15753,1.11e5,1.24e5,1.21e5,1.39e5,10120,inactive
CG31156 (GeneID 42669),DRSC15755,1.72e5,1.97e5,2.37e5,1.92e5,15700,inactive
CG9993 (GeneID 37358),DRSC04599,38550,42705,38225,48860,2065,inactive
CG15099 (GeneID 37176),DRSC06528,1.01e5,82760,1.60e5,2.17e5,9242,inactive
Osi11 (GeneID 40765),DRSC12282,1.23e5,1.22e5,1.10e5,1.13e5,6880,inactive
CG5611 (GeneID 43318),DRSC15843,1.58e5,1.72e5,2.45e5,2.04e5,14005,inactive
IFT43 (GeneID 34676),DRSC02892,2.11e5,2.02e5,1.99e5,1.70e5,17890,inactive
Gs1l (GeneID 33653),DRSC00754,1.89e5,2.11e5,1.94e5,1.79e5,11500,inactive
Oxp (GeneID 37002),DRSC06712,1.02e5,85360,1.07e5,1.29e5,9695,inactive
CG7382 (GeneID 33772),DRSC03052,1.43e5,1.80e5,1.76e5,1.78e5,13705,inactive
FucTD (GeneID 38164),DRSC08634,1.06e5,93455,1.38e5,1.20e5,3592,inactive
CG9029 (GeneID 33815),DRSC03129,1.67e5,1.41e5,1.40e5,1.43e5,10370,inactive
CG31680 (GeneID 318881),DRSC21878,,,,,,inactive
CR14798 (GeneID 31126),DRSC17956,1.20e5,1.43e5,2.89e5,2.70e5,9345,inactive
tbrd-2 (GeneID 37207),DRSC07020,93165,97945,95285,99670,7795,inactive
CG14339 (GeneID 33286),DRSC00369,1.18e5,1.05e5,1.22e5,63210,11192,inactive
CG12479 (GeneID 50344),DRSC19459,85570,85340,1.06e5,84915,11138,inactive
CG11034 (GeneID 33810),DRSC02121,1.52e5,1.59e5,2.13e5,1.74e5,10635,inactive
CG11034 (GeneID 33810),DRSC02122,1.37e5,1.27e5,1.61e5,1.66e5,9365,inactive
Atg12 (GeneID 39383),DRSC09803,1.58e5,1.96e5,2.60e5,1.80e5,9490,inactive
Cpr64Aa (GeneID 38508),DRSC08460,75570,70760,1.08e5,88100,4505,inactive
CG8135 + BBIP1,DRSC12739,1.19e5,1.40e5,1.11e5,1.02e5,8600,inactive
CG8135 + BBIP1,DRSC16384,71545,84245,79615,49460,4410,inactive
ND-51L1 (GeneID 36998),DRSC06072,1.34e5,99100,1.21e5,1.13e5,12095,inactive
Nplp3 (GeneID 59235),DRSC09944,1.72e5,2.01e5,2.13e5,1.77e5,8865,inactive
CG15269 (GeneID 34887),DRSC01942,1.11e5,1.15e5,1.14e5,1.17e5,8805,inactive
RNaseX25 (GeneID 38885),DRSC11259,98880,1.20e5,75495,34445,9980,inactive
CycK (GeneID 49816),DRSC03714,73910,66020,40920,41455,5375,inactive
Ccdc58 + CG34116,DRSC10105,1.35e5,1.59e5,1.33e5,1.21e5,25685,inactive
azot (GeneID 35751),DRSC06051,2.13e5,2.20e5,2.71e5,2.70e5,19820,inactive
CG32280 (GeneID 317952),DRSC08024,1.60e5,1.97e5,2.07e5,1.80e5,13460,inactive
CG12693 (GeneID 31375),DRSC17882,1.32e5,1.21e5,2.44e5,2.33e5,9205,inactive
tefu (GeneID 41839),DRSC16060,2.28e5,1.82e5,2.03e5,1.92e5,15825,inactive
CR12628 + Mgstl,DRSC03702,49435,53025,41865,30340,2850,inactive
CR12628 + Mgstl,DRSC20568,1.26e5,1.44e5,1.46e5,1.54e5,13475,inactive
CG4619 (GeneID 34321),DRSC02764,2.29e5,2.15e5,2.20e5,2.12e5,17835,inactive
CG13024 (GeneID 39880),DRSC09904,56830,56755,65585,45365,4892,inactive
fau (GeneID 41291),DRSC12816,1.46e5,1.45e5,1.59e5,1.34e5,13715,inactive
fau (GeneID 41291),DRSC12817,1.19e5,1.12e5,1.43e5,1.27e5,10435,inactive
fau (GeneID 41291),DRSC16943,1.53e5,1.41e5,95450,94770,10910,inactive
fau (GeneID 41291),DRSC16944,1.18e5,1.31e5,1.37e5,1.09e5,7980,inactive
fau (GeneID 41291),DRSC16945,64025,70310,63255,56210,6055,inactive
CG3548 (GeneID 37932),DRSC04387,68955,59170,46555,41450,3850,inactive
Gip (GeneID 31960),DRSC18667,1.63e5,1.52e5,2.62e5,2.59e5,13305,inactive
maf-S (GeneID 37336),DRSC07348,66490,1.05e5,3.23e5,3.13e5,5860,active

2 of these entries, set out differently:
gene	DRSC id	induced reporter light, run 1, well a	induced reporter light, run 1, well b	control promoter light, run 1, well a	control promoter light, run 1, well b	uninduced reporter light, run 1, well a	Outcome
ND-51L1 (GeneID 36998)	DRSC06072	1.34e5	99100	1.21e5	1.13e5	12095	inactive
Nplp3 (GeneID 59235)	DRSC09944	1.72e5	2.01e5	2.13e5	1.77e5	8865	inactive
